The record followed here is publication PMC8410870.

By UniProt entry, the sequences of proteins in these tests, tags left out.
UniProt Q86VP1: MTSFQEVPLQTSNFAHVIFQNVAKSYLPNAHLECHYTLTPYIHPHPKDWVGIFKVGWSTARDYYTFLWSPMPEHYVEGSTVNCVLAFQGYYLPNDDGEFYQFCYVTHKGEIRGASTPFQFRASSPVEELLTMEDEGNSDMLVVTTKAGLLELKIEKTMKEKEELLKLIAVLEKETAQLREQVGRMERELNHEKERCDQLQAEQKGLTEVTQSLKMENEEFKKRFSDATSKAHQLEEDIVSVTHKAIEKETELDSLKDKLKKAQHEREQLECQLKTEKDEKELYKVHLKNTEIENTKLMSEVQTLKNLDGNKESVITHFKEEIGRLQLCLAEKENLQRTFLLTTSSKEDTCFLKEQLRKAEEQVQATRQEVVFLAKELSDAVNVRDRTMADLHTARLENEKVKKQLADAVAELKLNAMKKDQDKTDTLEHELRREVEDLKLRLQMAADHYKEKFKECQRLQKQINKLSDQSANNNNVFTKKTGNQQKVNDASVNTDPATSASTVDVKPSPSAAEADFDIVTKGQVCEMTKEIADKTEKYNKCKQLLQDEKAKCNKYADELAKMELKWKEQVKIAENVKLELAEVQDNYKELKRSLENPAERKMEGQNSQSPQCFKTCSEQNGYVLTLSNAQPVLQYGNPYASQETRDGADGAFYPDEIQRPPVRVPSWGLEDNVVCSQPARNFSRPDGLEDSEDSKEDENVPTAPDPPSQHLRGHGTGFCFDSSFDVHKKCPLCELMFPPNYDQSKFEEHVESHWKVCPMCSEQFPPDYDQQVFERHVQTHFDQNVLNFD

In the assay the target is GST-TAX1BP1 (human) (UniProt Q86VP1). Briefly: pull-down; microscopy-based protein-protein interaction assay: GST-tagged bait saturated on Glutathione Sepharose 4B beads, fluorescent prey at 2 µM, 25 mM HEPES pH 7.5, 150 mM NaCl, 1 mM DTT, 30 min-1 h at room temperature, beads imaged at the equilibrium by confocal microscopy; both purified.

These are yes or no findings as the source states them, for the method shown. Some results given as binding are weak or reduced against the parent protein; the word gives no strength. Tags and fused reporters may be left off the sequences shown.

B1: GFP-NBR1 fragment spanning the CC1 and FW domains (aa 257-498) (domain or fragment, UniProt Q14596 257-498)
chain: LKLRRPVVGSSEPFCHSKYSTPRLPAALEQVRLQKQVDKNFLKAEKQRLRAEKKQRKAEVKELKKQLKLHRKIHLWNSIHGLQSPKSPLGRPESLLQSNTLMLPLQPCTSVMPMLSAAFVDENLPDGTHLQPGTKFIKHWRMKNTGNVKWSADTKLKFMWGNLTLASTEKKDVLVPCLKAGHVGVVSVEFIAPALEGTYTSHWRLSHKGQQFGPRVWCSIIVDPFPSEESPDNIEKGMISSS
Take B1: the binding entry is listed as “binds”.
